# Measurements: paper PMC9303297, “Characterization of an autonomous pathway complex that promotes flowering in Arabidopsis” (Nucleic Acids Research, 2022)
# No constants are given. Whether binding was seen depends on the method and setting. Binding seen in cells or lysates may run through a third protein. These calls come from enrichment with a bait or labelling near it, and not all partners need be listed. Where a sequence is shown, tags or fusion partners need not be part of it.
# T1: EFL2 (ELF4-like protein), EFL2-3×Flag in transgenic Arabidopsis (Arabidopsis thaliana) (UniProt Q94BS8)
# T1 sequence: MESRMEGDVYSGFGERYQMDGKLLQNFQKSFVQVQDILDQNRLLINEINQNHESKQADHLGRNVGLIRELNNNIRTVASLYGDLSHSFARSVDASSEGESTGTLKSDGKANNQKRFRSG
# T2: EFL4 (ELF4-like protein), EFL4-3×Flag in transgenic Arabidopsis (Arabidopsis thaliana) (UniProt Q570U6)
# T2 sequence: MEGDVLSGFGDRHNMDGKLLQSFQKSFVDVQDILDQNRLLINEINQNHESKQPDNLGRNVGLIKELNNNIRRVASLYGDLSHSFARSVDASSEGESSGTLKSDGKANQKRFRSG
# T3: FLD (FLOWERING LOCUS D), FLD-3×Flag in transgenic Arabidopsis (Arabidopsis thaliana) (UniProt Q9CAE3)
# T3 sequence: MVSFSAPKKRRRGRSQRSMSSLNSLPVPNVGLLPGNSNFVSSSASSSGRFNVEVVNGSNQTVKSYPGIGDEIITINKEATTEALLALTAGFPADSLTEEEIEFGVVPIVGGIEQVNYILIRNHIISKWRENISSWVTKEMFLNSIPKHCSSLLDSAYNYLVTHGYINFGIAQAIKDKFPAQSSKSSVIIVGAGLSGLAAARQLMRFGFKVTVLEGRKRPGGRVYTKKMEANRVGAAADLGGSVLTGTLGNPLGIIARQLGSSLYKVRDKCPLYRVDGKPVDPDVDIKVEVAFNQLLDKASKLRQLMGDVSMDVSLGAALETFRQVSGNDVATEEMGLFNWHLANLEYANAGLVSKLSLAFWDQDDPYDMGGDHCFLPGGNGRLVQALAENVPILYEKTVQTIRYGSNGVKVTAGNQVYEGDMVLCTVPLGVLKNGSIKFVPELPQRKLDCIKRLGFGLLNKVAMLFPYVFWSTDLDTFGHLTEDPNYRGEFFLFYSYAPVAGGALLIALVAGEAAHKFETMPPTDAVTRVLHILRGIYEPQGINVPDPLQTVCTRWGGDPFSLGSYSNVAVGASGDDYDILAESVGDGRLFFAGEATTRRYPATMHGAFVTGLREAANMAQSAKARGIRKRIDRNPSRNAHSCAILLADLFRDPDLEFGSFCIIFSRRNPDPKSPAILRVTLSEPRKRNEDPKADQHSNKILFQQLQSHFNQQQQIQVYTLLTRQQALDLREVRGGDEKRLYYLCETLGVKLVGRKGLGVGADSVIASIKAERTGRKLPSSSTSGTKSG
# T4: LD (LU…), LD-3×Flag in transgenic Arabidopsis (Arabidopsis thaliana) (UniProt Q38796)
# T4 sequence: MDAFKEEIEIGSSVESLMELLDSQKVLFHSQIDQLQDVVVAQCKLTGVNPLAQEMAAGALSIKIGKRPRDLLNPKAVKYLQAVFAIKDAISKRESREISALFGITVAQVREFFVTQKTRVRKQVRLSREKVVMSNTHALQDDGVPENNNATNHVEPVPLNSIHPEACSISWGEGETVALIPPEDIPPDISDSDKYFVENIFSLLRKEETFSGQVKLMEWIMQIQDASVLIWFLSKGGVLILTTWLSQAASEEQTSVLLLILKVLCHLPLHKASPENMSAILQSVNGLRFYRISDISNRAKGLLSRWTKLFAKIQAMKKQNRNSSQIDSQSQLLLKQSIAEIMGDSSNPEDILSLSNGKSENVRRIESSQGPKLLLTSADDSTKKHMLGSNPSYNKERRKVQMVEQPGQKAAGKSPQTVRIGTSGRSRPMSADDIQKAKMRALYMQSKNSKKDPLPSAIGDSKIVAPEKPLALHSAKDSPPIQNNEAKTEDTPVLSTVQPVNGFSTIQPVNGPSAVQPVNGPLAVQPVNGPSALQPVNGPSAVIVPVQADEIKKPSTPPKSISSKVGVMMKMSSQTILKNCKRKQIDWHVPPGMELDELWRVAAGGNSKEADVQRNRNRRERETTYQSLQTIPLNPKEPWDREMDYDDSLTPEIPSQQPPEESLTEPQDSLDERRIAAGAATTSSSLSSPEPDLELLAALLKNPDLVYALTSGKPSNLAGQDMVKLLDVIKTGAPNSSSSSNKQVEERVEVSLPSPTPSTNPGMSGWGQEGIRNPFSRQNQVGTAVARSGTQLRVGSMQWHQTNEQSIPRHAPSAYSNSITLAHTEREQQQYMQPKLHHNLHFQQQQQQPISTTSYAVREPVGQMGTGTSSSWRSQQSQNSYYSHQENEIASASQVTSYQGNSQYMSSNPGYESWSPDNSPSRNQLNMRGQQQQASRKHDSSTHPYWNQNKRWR
# T5: SDG26, SDG26-3×Flag in transgenic Arabidopsis (Arabidopsis thaliana) (UniProt Q84WW6)
# T5 sequence: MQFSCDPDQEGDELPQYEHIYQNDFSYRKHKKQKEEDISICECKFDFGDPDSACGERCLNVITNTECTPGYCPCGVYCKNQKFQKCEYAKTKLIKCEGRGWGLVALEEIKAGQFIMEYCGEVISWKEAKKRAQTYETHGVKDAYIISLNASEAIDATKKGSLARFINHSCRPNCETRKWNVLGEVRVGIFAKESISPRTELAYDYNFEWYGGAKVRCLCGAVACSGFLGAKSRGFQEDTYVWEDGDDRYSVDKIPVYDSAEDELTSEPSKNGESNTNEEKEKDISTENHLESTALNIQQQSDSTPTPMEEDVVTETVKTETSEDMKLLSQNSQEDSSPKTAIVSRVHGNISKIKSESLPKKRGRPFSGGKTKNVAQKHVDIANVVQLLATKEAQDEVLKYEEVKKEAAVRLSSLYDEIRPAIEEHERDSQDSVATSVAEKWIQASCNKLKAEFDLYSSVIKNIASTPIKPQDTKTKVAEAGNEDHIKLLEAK
# B1: LD (LU…), LD-3×Flag in transgenic Arabidopsis (protein, UniProt Q38796 1-953)
# chain: T4 sequence
# B2: SDG26, SDG26-3×Flag in transgenic Arabidopsis (protein, UniProt Q84WW6 1-492)
# chain: T5 sequence
# B3: HDA19 (histone deacetylase complex component) (protein, UniProt O22446 1-501)
# chain: MDTGGNSLASGPDGVKRKVCYFYDPEVGNYYYGQGHPMKPHRIRMTHALLAHYGLLQHMQVLKPFPARDRDLCRFHADDYVSFLRSITPETQQDQIRQLKRFNVGEDCPVFDGLYSFCQTYAGGSVGGSVKLNHGLCDIAINWAGGLHHAKKCEASGFCYVNDIVLAILELLKQHERVLYVDIDIHHGDGVEEAFYATDRVMTVSFHKFGDYFPGTGHIQDIGYGSGKYYSLNVPLDDGIDDESYHLLFKPIMGKVMEIFRPGAVVLQCGADSLSGDRLGCFNLSIKGHAECVKFMRSFNVPLLLLGGGGYTIRNVARCWCYETGVALGVEVEDKMPEHEYYEYFGPDYTLHVAPSNMENKNSRQMLEEIRNDLLHNLSKLQHAPSVPFQERPPDTETPEVDEDQEDGDKRWDPDSDMDVDDDRKPIPSRVKREAVEPDTKDKDGLKGIMERGKGCEVEVDESGSTKVTGVNPVGVEEASVKMEEEGTNKGGAEQAFPPKT
# B4: EFL4 (ELF4-like protein), EFL4-3×Flag in transgenic Arabidopsis (protein, UniProt Q570U6 1-114)
# chain: T2 sequence
# B5: EFL2 (ELF4-like protein), EFL2-3×Flag in transgenic Arabidopsis (protein, UniProt Q94BS8 1-119)
# chain: T1 sequence
# Target: T1, EFL2 (ELF4-like protein), EFL2-3×Flag in transgenic Arabidopsis (Arabidopsis thaliana)
# Test: affinity purification with mass spectrometry; 3×Flag-tagged bait from inflorescence of transgenic Arabidopsis (WT, sdg26 and fld backgrounds) bound to ANTI-FLAG M2 agarose at 4°C, lysis buffer 50 mM Tris-HCl pH 7.6, 150 mM NaCl, 0.1% NP-40; eluted with 3×Flag peptides
row,Binder,binding
1,B1,binds
2,B2,binds
3,B3,binds

# Target: T2, EFL4 (ELF4-like protein), EFL4-3×Flag in transgenic Arabidopsis (Arabidopsis thaliana)
# Test: as above
row,Binder,binding
1,B1,binds
2,B2,binds
3,B3,binds

# Target: T3, FLD (FLOWERING LOCUS D), FLD-3×Flag in transgenic Arabidopsis (Arabidopsis thaliana)
# Test: as above
row,Binder,binding
1,B1,binds
2,B4,binds
3,B5,binds
4,B2,binds

# Target: T4, LD (LU…), LD-3×Flag in transgenic Arabidopsis (Arabidopsis thaliana)
# Test: as above
row,Binder,binding
1,B4,binds
2,B5,binds
3,B2,binds

# Target: T5, SDG26, SDG26-3×Flag in transgenic Arabidopsis (Arabidopsis thaliana)
# Test: as above
row,Binder,binding
1,B1,binds
2,B4,binds
3,B5,binds
